One compound from patent publication US20100331297A1, “MODULATION OF PROTEIN TRAFFICKING” (FOLDRX PHARMACEUTICALS, INC., priority 2007, published 2010) can be followed below.

Chains of the proteins cited; added tags and fusions are not shown. A line that says so, or that is headed by a name, gives the form on record, which may keep a tag or linker.
UniProt P13569, with tags, fused parts or gaps DEL508-508: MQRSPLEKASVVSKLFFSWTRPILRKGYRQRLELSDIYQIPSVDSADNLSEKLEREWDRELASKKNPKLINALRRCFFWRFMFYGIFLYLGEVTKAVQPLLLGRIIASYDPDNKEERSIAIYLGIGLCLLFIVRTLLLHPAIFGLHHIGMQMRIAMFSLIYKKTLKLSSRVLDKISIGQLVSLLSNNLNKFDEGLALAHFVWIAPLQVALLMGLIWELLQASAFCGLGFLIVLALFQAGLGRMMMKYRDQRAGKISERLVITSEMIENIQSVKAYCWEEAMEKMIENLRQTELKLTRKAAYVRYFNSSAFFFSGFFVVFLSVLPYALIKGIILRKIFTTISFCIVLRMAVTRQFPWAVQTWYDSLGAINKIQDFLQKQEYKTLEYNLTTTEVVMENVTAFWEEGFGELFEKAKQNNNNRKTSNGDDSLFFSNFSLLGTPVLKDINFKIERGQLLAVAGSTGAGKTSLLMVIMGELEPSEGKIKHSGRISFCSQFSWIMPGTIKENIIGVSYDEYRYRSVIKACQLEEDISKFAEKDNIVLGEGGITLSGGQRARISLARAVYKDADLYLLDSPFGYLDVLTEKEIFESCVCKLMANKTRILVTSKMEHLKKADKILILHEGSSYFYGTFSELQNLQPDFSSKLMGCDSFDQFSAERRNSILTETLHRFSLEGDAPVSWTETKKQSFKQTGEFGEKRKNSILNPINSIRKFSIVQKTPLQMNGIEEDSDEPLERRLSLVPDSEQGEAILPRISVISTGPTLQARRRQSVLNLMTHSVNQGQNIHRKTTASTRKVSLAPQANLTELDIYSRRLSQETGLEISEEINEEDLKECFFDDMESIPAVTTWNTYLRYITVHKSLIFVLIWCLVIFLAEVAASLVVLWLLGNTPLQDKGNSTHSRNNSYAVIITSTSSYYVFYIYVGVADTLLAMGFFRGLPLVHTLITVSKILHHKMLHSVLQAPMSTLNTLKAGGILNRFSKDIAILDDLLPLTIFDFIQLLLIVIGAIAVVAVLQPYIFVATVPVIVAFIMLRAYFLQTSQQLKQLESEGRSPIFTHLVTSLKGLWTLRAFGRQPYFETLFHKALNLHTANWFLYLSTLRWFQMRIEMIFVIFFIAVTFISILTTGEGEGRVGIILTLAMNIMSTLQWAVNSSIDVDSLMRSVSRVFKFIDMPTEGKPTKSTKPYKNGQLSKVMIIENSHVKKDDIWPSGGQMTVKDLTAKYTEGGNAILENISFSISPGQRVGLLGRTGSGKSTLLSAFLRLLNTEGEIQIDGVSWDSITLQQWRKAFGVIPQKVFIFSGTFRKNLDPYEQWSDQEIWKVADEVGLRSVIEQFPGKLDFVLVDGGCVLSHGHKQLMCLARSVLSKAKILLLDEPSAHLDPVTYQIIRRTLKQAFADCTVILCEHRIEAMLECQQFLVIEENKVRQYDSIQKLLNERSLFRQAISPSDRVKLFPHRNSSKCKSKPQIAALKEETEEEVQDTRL

As a reminder, the EC50 is the concentration needed to bring the measured effect to its halfway point.

The match of structure and compound is tentative.

In test [1] the target is T1, ΔF508 CFTR (Homo sapiens, UniProt P13569, DEL508-508). Nature of the test: Potentiator activity, YFP halide (iodide) quenching assay in FRT cells expressing ΔF508 CFTR, 27° C. pre-incubation. It counts as cell-based. The conditions noted are these: read-out: Potentiator EC50, 24 hours at 27° C., compound with forskolin 30 min.
Test [2] addresses T1, ΔF508 CFTR. The test can be described thus: Corrector activity, YFP halide (iodide) quenching assay in FRT cells expressing ΔF508 CFTR. The test is classed as cell-based. The settings on record: read-out: Corrector EC50, 24 hours with compound at 37° C., forskolin and genistein.

Regarding `CCn1cc(-c2ccc(Cl)cc2)c2c(NC(C)=O)ncnc21`, the EC50 at ΔF508 CFTR [1] is greater than 15 µM; at ΔF508 CFTR [2], 5 to 10 µM.
